Results published in PubChem BioAssay AID1487 (National Center for Advancing Translational Sciences (NCATS), 2009).
The list shows a part of the results. Shown are side measurements of this screen, not its main read-out; they come without a call. The list favours compounds with an active or inconclusive main result. Words in brackets tell the shape of the fitted curve; partial curves, single points and poor fits give uncertain potencies.

Experiment: qHTS Assay for Modulators of Lamin A Splicing
Settings: HeLa LMNA splicing GFP/RFP minigene ratio, 48 h
Summary of the method: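 Read-out is the ratio of GFP to DsRed2 object intensity, acquired by 488 nm laser-scanning cytometry on HeLa lamin A-EGFP minigene reporter cells. Compound incubation 48 hrs at 37 °C in Opti-MEM with 2% FBS; DMSO 0.5% final.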

[1] = measured here: GFP splicing reporter channel
[2] = measured here: RFP viability control channel

Structure (SMILES) | AC50 [1] | AC50 [2]
CCOC(=O)Cc1cnc(NC(=O)Cn2nnc(-c3ccc(OCC)cc3)n2)s1 | 7.08 µM [rising, partial curve, poor fit] | 7.94 µM [rising, partial curve, poor fit]
Cc1ccc(C(=O)c2ccccc2C(=O)OCC(=O)Nc2cccc([N+](=O)[O-])c2)cc1 |  | 22.4 µM [rising, partial curve, poor fit]
CC1CCc2cccc3c2N1c1cc(C#N)c(C#N)cc1O3 (stereo not drawn) |  | 5.62 µM [falling, partial curve]
CCCCCCOc1ccccc1C(N)=O |  | 0.00251 µM [falling, full curve, poor fit]
O=C(N/N=C/c1cccs1)c1cc(-c2cccc3ccccc23)n[nH]1 |  | 12.6 µM [rising, partial curve]
CC1=NN(c2ccccc2)C(=O)/C1=C/C=C/c1ccc(N(C)C)cc1 |  | 12.6 µM [rising, partial curve, poor fit]
O=C(N/C(=C\c1ccc([N+](=O)[O-])cc1)C(=O)N1CCCCC1)c1ccccc1Br | 35.5 µM [rising, single point] | 25.1 µM [rising, single point]
CCn1cc(C2C(C(=O)Nc3ccc(Br)cn3)=C(C)NC3=C2C(=O)CCC3)c(C)n1 (stereo not drawn) |  | 10 µM [rising, single point]
O=C(c1ccc(F)cc1)N1c2ncnn2C2(CCCCC2)[C@@H]2CCCC[C@@H]21 | 2.51 µM [falling, single point] | 
Cc1cc(NC(=O)c2ccc(Br)c(S(=O)(=O)N3CCCC3)c2)no1 |  | 25.1 µM [rising, partial curve]
CC(=O)Nc1ccc(S(=O)(=O)n2nc(-c3ccc(C)cc3)nc2N)cc1 |  | 12.6 µM [rising, single point]
COC(=O)c1ccc(NC(=S)N2CCN(C)CC2)cc1 |  | 0.158 µM [falling, full curve, poor fit]
COc1ccc(CN(C)C(=S)Nc2ccc(Cl)cc2Cl)cc1 | 0.00447 µM [falling, full curve, poor fit] | 
COC(=O)Cc1c(OC)ccn(CCc2c[nH]c3ccccc23)c1=O | 2 µM [rising, partial curve, poor fit] | 
CCN(CC(=O)Nc1ccc(N2CCOCC2)cc1)C(=O)c1ccc(C(F)(F)F)cc1 | 0.562 µM [falling, full curve, poor fit] | 
COC(=O)c1cc(=O)n(CCc2ccc(OC)c(OC)c2)c(=Nc2ccc(F)c(Cl)c2)s1 | 35.5 µM [falling, single point] | 35.5 µM [falling, single point]
CCc1ccc(Sc2cc(C(=O)NCCCN3CCCC(C)C3)c3ccccc3n2)cc1 (stereo not drawn) | 3.16 µM [falling, full curve, poor fit] | 
CCOC(=O)c1[nH]c(C)c(C(=O)Nc2cc(OC)ccc2OC)c1C |  | 1.26 µM [rising, full curve, poor fit]

In the list so far, these contain a nitro group on carbon:
Structure (SMILES) | AC50 [1] | AC50 [2]
Cc1ccc(C(=O)c2ccccc2C(=O)OCC(=O)Nc2cccc([N+](=O)[O-])c2)cc1 |  | 22.4 µM [rising, partial curve, poor fit]
O=C(N/C(=C\c1ccc([N+](=O)[O-])cc1)C(=O)N1CCCCC1)c1ccccc1Br | 35.5 µM [rising, single point] | 25.1 µM [rising, single point]

Going on with the list.

Structure (SMILES) | AC50 [1] | AC50 [2]
CC(C)Cc1nc2oc3c(Cl)ncnc3c2c2c1CCC2 | 31.6 µM [falling, single point] | 25.1 µM [falling, single point]
CC(C)OC(=O)CC(=O)CSc1nc2c(cc1C#N)CCC2 | 11.2 µM [rising, partial curve, poor fit] | 
Cc1ccnc(NS(=O)(=O)c2cc(C(F)(F)F)ccc2Cl)c1 | 0.0355 µM [falling, full curve] | 0.0224 µM [falling, full curve]
COc1cccc(OCCn2cc(C(=O)c3ccco3)c3ccccc32)c1 |  | 12.6 µM [rising, single point]
CC(=O)c1cc2ccccc2oc1=O | 0.158 µM [falling, single point] | 
CN(CC(=O)NCCc1ccccc1)S(=O)(=O)c1cccc2nsnc12 |  | 22.4 µM [rising, single point]
COc1cc(CNc2cccc(C(=O)O)c2)cc(Br)c1OCC(=O)NC(C)(C)C | 2 µM [falling, full curve] | 2.51 µM [falling, full curve, poor fit]
CCCCC1=CC2=C(c3ccco3)C(=O)C(C)(OC(=O)c3ccc(OC)cc3)C(=O)C2=CN1c1ccc(OC)cc1 (stereo not drawn) |  | 0.891 µM [falling, single point]
c1ccc2c(c1)CC(N1CCN(c3cccc4c3OCCO4)CC1)C2 |  | 0.00447 µM [falling, full curve, poor fit]
O=C(Nc1cccc(C(=O)N2CCN(c3ccc(F)cc3)CC2)c1)c1nsc2ccccc12 | 35.5 µM [falling, single point] | 35.5 µM [falling, single point]
CC(Cc1cccs1)NC(=S)Nc1ccccc1 (stereo not drawn) | 11.2 µM [rising, single point] | 15.8 µM [rising, single point]
CCOC(=O)c1[nH]c(C)c(C(=O)NCc2ccco2)c1C | 22.4 µM [falling, partial curve, poor fit] | 0.00501 µM [falling, full curve, poor fit]
CC(C)c1nc(SCC(=O)N2c3ccccc3CC2C)c2ccccc2n1 (stereo not drawn) |  | 20 µM [rising, single point]
O=S(=O)(Nc1ccccn1)c1ccc(Cl)cc1 | 2.51 µM [falling, partial curve] | 1.26 µM [falling, full curve, poor fit]
Cc1cccc(CSc2nc3c(c(-c4cccs4)c2C#N)CN(C)CC3)c1 | 0.0224 µM [rising, full curve, poor fit] | 1.12 µM [rising, partial curve, poor fit]
O=C(Nc1cccc(N=Cc2cc(Cl)cc(Br)c2O)c1)c1ccco1 |  | 31.6 µM [rising, single point]
CCn1c2ccccc2c2cc(CN3CCN(S(=O)(=O)CC)CC3)ccc21 |  | 15.8 µM [rising, partial curve]
Cc1c(Cl)c(=O)oc2cc(OCC(=O)NCc3cccs3)ccc12 | 0.355 µM [falling, full curve, poor fit] | 0.316 µM [falling, partial curve]
